Results are given in words; binding and its absence hold for the method and conditions named. Some binding calls cover weakened binding; strength is not graded here.
Target: T1, Splicing Factor Proline- and Glutamine- rich protein (SFPQ), truncated, residues 276 to 535 (human) (UniProt P23246)
T1 sequence: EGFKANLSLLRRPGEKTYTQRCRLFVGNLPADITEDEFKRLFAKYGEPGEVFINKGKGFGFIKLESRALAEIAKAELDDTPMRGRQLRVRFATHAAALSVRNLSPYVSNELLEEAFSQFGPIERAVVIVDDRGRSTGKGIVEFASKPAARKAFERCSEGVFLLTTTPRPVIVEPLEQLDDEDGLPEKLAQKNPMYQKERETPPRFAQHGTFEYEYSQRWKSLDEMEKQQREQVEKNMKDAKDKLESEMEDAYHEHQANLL
Assay: co-purification

- binding: binds
B1: ParaSpeckle Protein Component 1 (PSPC1), truncated, amino acids 53 to 320 (domain or fragment, UniProt Q8WXF1 53-320)
chain: PEDHPDEEMGFTIDIKSFLKPGEKTYTQRCRLFVGNLPTDITEEDFKRLFERYGEPSEVFINRDRGFGFIRLESRTLAEIAKAELDGTILKSRPLRIRFATHGAALTVKNLSPVVSNELLEQAFSQFGPVEKAVVVVDDRGRATGKGFVEFAAKPPARKALERCGDGAFLLTTTPRPVIVEPMEQFDDEDGLPEKLMQKTQQYHKEREQPPRFAQPGTFEFEYASRWKALDEMEKQQREQVDRNIREAKEKLEAEMEAARHEHQLMLM

Reference: article doi:10.1101/844126
